In the assay the target is metabotropic glutamate receptor 5 (rat (endogenous in retina)) (UniProt P31424). Briefly: co-IP; anti-mGluR5 antibody incubated with crude rat retinal lysate (RIPA buffer: PBS with 1% NP-40, 0.5% sodium deoxycholate, 0.1% SDS, with protease and phosphatase inhibitors), precipitated with protein-G agarose; immunoblot for AQP4 and Kir4.1; IgG negative control. (In western blotting, separated proteins are transferred to a membrane and probed.)

Protein sequences, listed by entry. Tags and fused reporters are not part of them. Residues count along the entry.
UniProt P31424, residues 21-1203: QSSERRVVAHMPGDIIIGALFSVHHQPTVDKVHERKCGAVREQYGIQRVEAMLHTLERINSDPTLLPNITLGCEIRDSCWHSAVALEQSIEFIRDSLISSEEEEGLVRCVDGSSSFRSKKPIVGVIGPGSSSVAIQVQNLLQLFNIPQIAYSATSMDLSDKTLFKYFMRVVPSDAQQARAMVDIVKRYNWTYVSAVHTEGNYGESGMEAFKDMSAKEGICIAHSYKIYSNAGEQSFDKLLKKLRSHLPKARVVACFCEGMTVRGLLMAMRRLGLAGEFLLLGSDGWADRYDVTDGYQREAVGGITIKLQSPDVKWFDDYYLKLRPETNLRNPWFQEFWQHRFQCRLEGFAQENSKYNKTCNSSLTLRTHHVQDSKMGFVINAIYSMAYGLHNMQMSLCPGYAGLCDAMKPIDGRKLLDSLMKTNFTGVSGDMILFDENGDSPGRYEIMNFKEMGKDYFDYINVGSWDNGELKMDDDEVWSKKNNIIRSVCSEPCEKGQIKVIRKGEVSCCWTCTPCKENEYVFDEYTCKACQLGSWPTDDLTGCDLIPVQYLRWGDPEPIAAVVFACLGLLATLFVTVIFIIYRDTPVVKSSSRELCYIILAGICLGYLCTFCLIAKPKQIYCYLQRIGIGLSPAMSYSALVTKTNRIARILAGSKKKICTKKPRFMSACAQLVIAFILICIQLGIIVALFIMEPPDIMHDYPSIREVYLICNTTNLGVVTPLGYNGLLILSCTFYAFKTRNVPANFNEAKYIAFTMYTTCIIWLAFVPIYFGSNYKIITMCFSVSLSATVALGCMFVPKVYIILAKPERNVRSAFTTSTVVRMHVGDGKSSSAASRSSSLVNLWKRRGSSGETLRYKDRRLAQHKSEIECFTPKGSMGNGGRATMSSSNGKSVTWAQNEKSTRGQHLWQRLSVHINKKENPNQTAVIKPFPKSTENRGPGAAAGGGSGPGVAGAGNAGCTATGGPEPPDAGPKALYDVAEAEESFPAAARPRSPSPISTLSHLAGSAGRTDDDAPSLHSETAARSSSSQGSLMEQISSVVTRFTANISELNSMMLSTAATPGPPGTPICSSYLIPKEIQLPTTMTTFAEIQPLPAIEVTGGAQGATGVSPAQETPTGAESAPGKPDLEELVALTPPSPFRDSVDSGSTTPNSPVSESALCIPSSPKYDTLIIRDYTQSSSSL
UniProt P47863: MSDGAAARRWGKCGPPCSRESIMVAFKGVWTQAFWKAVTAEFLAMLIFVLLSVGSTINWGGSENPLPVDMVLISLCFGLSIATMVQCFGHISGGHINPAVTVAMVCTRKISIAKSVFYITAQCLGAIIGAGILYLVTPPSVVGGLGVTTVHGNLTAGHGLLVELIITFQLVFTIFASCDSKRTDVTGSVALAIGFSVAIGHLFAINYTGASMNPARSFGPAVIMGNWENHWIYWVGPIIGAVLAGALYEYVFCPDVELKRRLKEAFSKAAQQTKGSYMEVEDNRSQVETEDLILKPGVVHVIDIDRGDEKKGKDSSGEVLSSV

Results are given in words; binding and its absence hold for the method and conditions named. In cells and extracts the contact can be indirect. Some results given as binding are weak or reduced against the parent protein; the word gives no strength.

On to aquaporin-4 (from UniProt P47863 1-323), for which the binding entry is on record as “binds”.

B1: inward-rectifying potassium ion channel Kir4.1 (protein, UniProt P49655 1-379)
chain: MTSVAKVYYSQTTQTESRPLVAPGIRRRRVLTKDGRSNVRMEHIADKRFLYLKDLWTTFIDMQWRYKLLLFSATFAGTWFLFGVVWYLVAVAHGDLLELGPPANHTPCVVQVHTLTGAFLFSLESQTTIGYGFRYISEECPLAIVLLIAQLVLTTILEIFITGTFLAKIARPKKRAETIRFSQHAVVAYHNGKLCLMIRVANMRKSLLIGCQVTGKLLQTHQTKEGENIRLNQVNVTFQVDTASDSPFLILPLTFYHVVDETSPLKDLPLRSGEGDFELVLILSGTVESTSATCQVRTSYLPEEILWGYEFTPAISLSASGKYVADFSLFDQVVKVASPGGLRDSTVRYGDPEKLKLEESLREQAEKEGSALSVRISNV
As for B1, the binding entry is reported as “binds”.

The values above are taken from publication PMC5471183.
